Assay results: the supplement of paper PMC6445147
Single values of this data set are uncertain.

B1: human tRNA-Pro; a variant is named by its letters at N, in order (parent)
chain: GGCTCGTTGGTCTAGNGGTATGATTCTCGCTTAGGGTGCGAGAGGTCCCGGGTTCNNATCCCGGACGAGCCC

Key:
[1] = variants of: B1; experiment: tRNA Pol-III promoter activity, log2 (circRNA frequency / plasmid DNA frequency) (log2 ratio); higher = stronger promoter activity; settings: HEK293T; construct: no Pol-II promoter ((-)CMV library)
[2] = variants of: B1; experiment: tRNA 3' processing efficiency (processed reads / all reads, maximum-likelihood estimate) (fraction); higher = more efficient 3' processing; settings: HEK293T; construct: no Pol-II promoter ((-)CMV library)
[3] = variants of: B1; experiment: tRNA 5' processing efficiency (processed reads / all reads, maximum-likelihood estimate) (fraction); higher = more efficient 5' processing; settings: HEK293T; construct: CMV Pol-II promoter ((+)CMV library, decapped)

Variant: GGCTCGTCGGTCTAGGGTTATGATTCTCGCTTAGGGTGCGAGAGGTCCCGGGTTCAAAACCCGGACGAGCCC [GAA T8C G18T T59A]
- tRNA Pol-III promoter activity (log2) [1]: 3.36
- tRNA 3' processing efficiency [2]: 0.38

Variant: GGCTCGTTGGTCTAGGGGAGTGATTCTCGCTTAGGGTGCGAGAGGTCCCGGGTTCTAATCCCGGACGAGCCC [GTA T19A A20G]
- tRNA Pol-III promoter activity (log2) [1]: 5.76
- tRNA 3' processing efficiency [2]: 0.49

Variant: GGCTCGTTGGTCTTGAGGTATGATTCTCGCTTAGGGTGCGAGAGGTCCCGGGTTCATATCCCGGACGAGCCC [AAT A14T]
- tRNA Pol-III promoter activity (log2) [1]: 3.73
- tRNA 3' processing efficiency [2]: 0.21

Variant: GGCTCGTTGGTCTGTGGGTATGATTCTCGCTTAGGGTGCGAGAGGTCCCGGGTTCAAAACCCGGACGAGCCC [GAA A14G G15T T59A]
- tRNA Pol-III promoter activity (log2) [1]: 2.24
- tRNA 3' processing efficiency [2]: 0.5

Variant: GGCTCGTTGGTCTAGAGGTATGATTCTCGCTTAGGGTGCGAGAGGTCCCGGGTTCATATCCCGGACGAGCCC [AAT]
- tRNA Pol-III promoter activity (log2) [1]: 3.62
- tRNA 3' processing efficiency [2]: 0.23
- tRNA 5' processing efficiency [3]: 0.25

Variant: GGCTCGTTGGTCTAGGGGTTTGATTCTCGCTTAGGGTGCGAGAGGTCCCGGGGTCTAATCCCGGACGAGCCC [GTA A20T T53G]
- tRNA Pol-III promoter activity (log2) [1]: 3.57
- tRNA 3' processing efficiency [2]: 0.14

Variant: GGCTCGTTGGTCTGGAGGTATGATTCTCGCTTAGGGTGCGAGAGGTCCCGGGCTCAAATCCCGGACGAGCCC [AAA A14G T53C]
- tRNA Pol-III promoter activity (log2) [1]: 3.7
- tRNA 3' processing efficiency [2]: 0.38

Variant: GGCTCGTTGGTCTAGGTGTATGATTCTCGCTTAGGGTGCGAGAGGTCCCGGGTTCAATTCCCGGACGAGCCC [GAA G17T A58T]
- tRNA Pol-III promoter activity (log2) [1]: 1.03
- tRNA 3' processing efficiency [2]: 0.71

Variant: GGCTCGTTGGTCTAGTGGTTTGATTCTCGCTTAGGGTGCGAGAGGTCCCGGGTTTAAATCCCGGACGAGCCC [TAA A20T C55T]
- tRNA Pol-III promoter activity (log2) [1]: 2.18
- tRNA 3' processing efficiency [2]: 0.2

Variant: GGCTCGTTGGTCTAGCGGTATGATTCTCGCTTAGGGTGCGAGTGGTCCCGGGTTCAAATCCCGGACGAGCCC [CAA A43T]
- tRNA Pol-III promoter activity (log2) [1]: 3.71
- tRNA 3' processing efficiency [2]: 0.25

Variant: GGCTCGTTGGTCTTGGGGTATGATTCTCGCTTAGGGTGCGAGAGGTCCCGGGTTCAAATCCCGGACGAGCCC [GAA A14T]
- tRNA Pol-III promoter activity (log2) [1]: -0.974
- tRNA 3' processing efficiency [2]: 0.55
- tRNA 5' processing efficiency [3]: 0.24

Variant: GGCTCGTTGGTCTACGGGTATGATTCTCGCTTAGGGTGCGAGAGGTCCCGGGTTCAGATCCCGGACGAGCCC [GAG G15C]
- tRNA Pol-III promoter activity (log2) [1]: 2.82
- tRNA 3' processing efficiency [2]: 0.32

Variant: GGCTCGTTGGTCTAGGGGAATGATTCTCGCTTAGGGTGCGAGAGGTCCCGGGTTCCAGTCCCGGACGAGCCC [GCA T19A A58G]
- tRNA Pol-III promoter activity (log2) [1]: 6.75
- tRNA 3' processing efficiency [2]: 0.43

Variant: GGCTCGTTGGTCTAGGAGTATGATTCTCGCTTAGGGTGCGAGAGGTCCCGGGTTCAATTCCCGGACGAGCCC [GAA G17A A58T]
- tRNA Pol-III promoter activity (log2) [1]: -1.18
- tRNA 3' processing efficiency [2]: 0.25
- tRNA 5' processing efficiency [3]: 0.33

Variant: GGCTCGTTGGTCTAGGGGTATGATTCTCGCTTAGGGTGCGAGAGGTCCCGGGTTCATTTCCCGGACGAGCCC [GAT A58T]
- tRNA Pol-III promoter activity (log2) [1]: 0.804
- tRNA 3' processing efficiency [2]: 0.45
- tRNA 5' processing efficiency [3]: 0.21

Variant: GGCTCGTTGGTCTAGGGGAATGATTCTCGCTTAGGGTGCGAGAGGTCCCGGGTTCGAAGCCCGGACGAGCCC [GGA T19A T59G]
- tRNA Pol-III promoter activity (log2) [1]: 3.36
- tRNA 3' processing efficiency [2]: 0.4

Variant: GGCTCGTTGGTCTAGGGGTGTGATTCTCGCTTAGGGTGCGAGAGGTCCCGGGTTCAATACCCGGACGAGCCC [GAA A20G A58T T59A]
- tRNA Pol-III promoter activity (log2) [1]: 3.94
- tRNA 3' processing efficiency [2]: 0.25

Variant: GGCTCGTTGGTCTCGGGGCATGATTCTCGCTTAGGGTGCGAGAGGTCCCGGGTTCAGATCCCGGACGAGCCC [GAG A14C T19C]
- tRNA Pol-III promoter activity (log2) [1]: 4.61
- tRNA 3' processing efficiency [2]: 0.5

Variant: GGCTCGTTGGTCTTGGGTTATGATTCTCGCTTAGGGTGCGAGAGGTCCCGGGTTCTAATCCCGGACGAGCCC [GTA A14T G18T]
- tRNA Pol-III promoter activity (log2) [1]: 5.91
- tRNA 3' processing efficiency [2]: 0.73

Variant: GGCTCGTTGGTCTAGCGGTATGATTCTCGCTTAGGGTGCGAGAGGTCCCGGGTTCCAGTCCCGGACGAGCCC [CCA A58G]
- tRNA Pol-III promoter activity (log2) [1]: 4.12
- tRNA 3' processing efficiency [2]: 0.62

Variant: GGCTCGTTGGTCTAGTGGTGTGATTCTCGCTTAGGGTGCGAGAGGTCCCGGGTTCCAATCCCGGACGAGCCC [TCA A20G]
- tRNA Pol-III promoter activity (log2) [1]: 3.95
- tRNA 3' processing efficiency [2]: 0.33

Variant: GGCTCGTTGGTCTCGTGGTATGATTCTCGCTTAGGGTGCGAGAGGTCCCGGGTTCAGATCCCGGACGAGCCC [TAG A14C]
- tRNA Pol-III promoter activity (log2) [1]: 3.57
- tRNA 3' processing efficiency [2]: 0.43

Variant: GGCTCGTTGGTCTAGGGTTCTGATTCTCGCTTAGGGTGCGAGAGGTCCCGGGTTTAAATCCCGGACGAGCCC [GAA G18T A20C C55T]
- tRNA Pol-III promoter activity (log2) [1]: 5.75
- tRNA 3' processing efficiency [2]: 0.86

Variant: GGCTCGTTGGTCTAGTGGTATGATTCTCGCTTAGGGTGCGAGAGGTCCCGGGTTCAGTTCCCGGACGAGCCC [TAG A58T]
- tRNA Pol-III promoter activity (log2) [1]: 2
- tRNA 3' processing efficiency [2]: 0.4

Variant: GGCTCGTTAGTCTAGGGGTATGATTCTCGCTTAGGGTGCGAGAGGTCCCGGGTTCTAGTCCCGGACGAGCCC [GTA G9A A58G]
- tRNA Pol-III promoter activity (log2) [1]: 3.75
- tRNA 3' processing efficiency [2]: 0.29

Variant: GGCTCGTTGGTCTAGTGGTATGATTCTCGCTTAGGGTGCGAGAGGTCCCGGGTTCTAGTCCCGGACGAGCCC [TTA A58G]
- tRNA Pol-III promoter activity (log2) [1]: 4.18
- tRNA 3' processing efficiency [2]: 0.09

Variant: GGCTCGTTGGTCTAGAGGAATGATTCTCGCTTAGGGTGCGAGAGGTCCCGGGTTCAGATCCCGGACGAGCCC [AAG T19A]
- tRNA Pol-III promoter activity (log2) [1]: 7.28
- tRNA 3' processing efficiency [2]: 0.37

Variant: GGCTCGTTGGTCTAGGGGTATGATTCTCGCTTAGGGTGCGAGAGGTCCCGGGTTCATACCCCGGACGAGCCC [GAT T59C]
- tRNA Pol-III promoter activity (log2) [1]: 4.27
- tRNA 3' processing efficiency [2]: 0.39

Variant: GGCTCGTTGGTCTAGGGGTATGATTCTCGCTTAGGGTGCGAGAGGTCCCGGGTTCTACCCCCGGACGAGCCC [GTA A58C T59C]
- tRNA Pol-III promoter activity (log2) [1]: 7.21
- tRNA 3' processing efficiency [2]: 0.24

Variant: GGCTCGTTGGTCTAGGGGGATGATTCTCGCTTAGGGTGCGAGAGGTCCCGGGTTTAAATCCCGGACGAGCCC [GAA T19G C55T]
- tRNA Pol-III promoter activity (log2) [1]: -0.479
- tRNA 3' processing efficiency [2]: 0.29

Variant: GGCTCGTTGGTCTAACGGTATGATTCTCGCTTAGGGTGCGAGAGGTCCCGGGTTCTATTCCCGGACGAGCCC [CTA G15A A58T]
- tRNA Pol-III promoter activity (log2) [1]: 6.94
- tRNA 3' processing efficiency [2]: 0.13

Variant: GGCTCGTTGGTCTAGGGGTTTGATTCTCGCTTAGGGTGCGAGAGGTCCCGGGTACGAATCCCGGACGAGCCC [GGA A20T T54A]
- tRNA Pol-III promoter activity (log2) [1]: 3.62
- tRNA 3' processing efficiency [2]: 0.25

Variant: GGCTCGTTGGTCTAGTGGTATGATTCTCGCTTAGGGTGCGAGAGGTCCCGGGTTCTCATCCCGGACGAGCCC [TTC]
- tRNA Pol-III promoter activity (log2) [1]: 9.06
- tRNA 3' processing efficiency [2]: 0.02

Variant: GGCTCGTTGGTCTGGGGGCATGATTCTCGCTTAGGGTGCGAGAGGTCCCGGGTTCACATCCCGGACGAGCCC [GAC A14G T19C]
- tRNA Pol-III promoter activity (log2) [1]: 5.15
- tRNA 3' processing efficiency [2]: 0.57

Variant: GGCTCGTTGGTCTCGGGTTATGATTCTCGCTTAGGGTGCGAGAGGTCCCGGGTTCAATTCCCGGACGAGCCC [GAA A14C G18T A58T]
- tRNA Pol-III promoter activity (log2) [1]: 0.813
- tRNA 3' processing efficiency [2]: 0.25

Variant: GGCTCGTTGGTCTAGAGGGATGATTCTCGCTTAGGGTGCGAGAGGTCCCGGGTTCAAGGCCCGGACGAGCCC [AAA T19G A58G T59G]
- tRNA Pol-III promoter activity (log2) [1]: 5.74
- tRNA 3' processing efficiency [2]: 0.32
